Data as given in patent publication US20250241109A1, “Electron Transporting Self-Assembling Monolayer Compound for Use in Optoelectronic and/or Photoelectrochemical Devices and Manufacture Thereof” (Kaunas University of Technology, priority 2024, published 2025).

Key:
[1] = n-i-p perovskite solar cell performance (J-V characteristics); conditions: reverse scan, AM 1.5 G
[2] = Long-term stability tests of photovoltaic cells

In the case of CC(C)(C)c1ccc(C(C)(C)C)c(N2C(=O)c3ccc4c5c(ccc(c35)C2=O)C(=O)N(CP(=O)(O)O)C4=O)c1 [Compound V1264, N-(2,5-di-tert-butyl-phenyl)-N′-(methyl)-1,4,5,8-naphthalene tetracarboxylic diimide phosphonic acid], the “Maximum PCE” value ([1]; ITO/V1264/mixed perovskite/HTL/MoOx/Ag) is reported as 21.5%, the FF [1] is reported as 77% and the JSC [1] is reported as 24.7 mA cm^−2. The VOC [1] was 1.13 V, the “Retention of initial PCE” value ([2]; 65° C., N2, dark, PTAA as HTL) was “above 90%” and the “Retention of initial PCE” value ([2]; 65° C., N2-glovebox, hot plate, dark, more than 1000 hours, spiro-OMeTAD HTL) was “around 72%”. For the same compound, the “Retention of initial PCE” value ([2]; non-encapsulated devices, N2-glovebox, room temperature, 1000 hours storage) was “around 84%”.
